Data published in article PMC3988052.
pKd: −log10 of the molar value. Construct, isoform or probe ends are uncertain for at least one entry. Negatives hold for the conditions tested. Tags and fusion partners may be left off the protein sequences shown.

These sequences were tested against T1, ATHB17Δ113 M227I (Arabidopsis thaliana) (UniProt Q8S9N6) (assay: SPR). Conditions: SPR (Biacore 2000): 10 mM HEPES pH 7.4, 150 mM NaCl, 3 mM EDTA, 0.005% Tween-20, 100 ug/ml BSA, 25 C, 3.7-300 nM protein; recombinant protein; residues 114-275; protein details: tag-free; label: biotin.
T1 sequence (looked up): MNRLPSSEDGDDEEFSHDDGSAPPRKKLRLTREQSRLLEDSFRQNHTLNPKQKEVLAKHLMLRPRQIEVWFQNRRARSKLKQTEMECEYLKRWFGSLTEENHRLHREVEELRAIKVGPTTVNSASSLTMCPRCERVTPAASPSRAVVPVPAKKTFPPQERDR

Row | Sequence | binding result
1 | CAGCTCAGTCTGACGGC (double strand) [Non-consensus] | no binding

These sequences were tested against T1, ATHB17Δ113 M227I (Arabidopsis thaliana) (assay: BLI). Conditions: BLI (Octet QK): PBS (10 mM Na2HPO4, 1 mM KH2PO4, 137 mM NaCl, 2.7 mM KCl) pH 7.4, 0.005% Tween-20, 30 C, 30 nM protein; recombinant protein; residues 114-275; protein details: tag-free; label: biotin.

Row | Sequence | pKd | binding result
2 | CAGATAATCATTACGGC (double strand) [Substitution TAATCATTA] | 6.97 | 
3 | CAGATAATTATTACGGC (double strand) [Substitution TAATTATTA] | 7.04 | 
4 | CAGACAACCGTTGCGGC (double strand) [Substitution CAACCGTTG] |  | no binding
5 | CAGACGATCATCGCGGC (double strand) [Substitution CGATCATCG] |  | no binding
6 | CAGACAGTCACTGCGGC (double strand) [Substitution CAGTCACTG] |  | no binding
7 | CAGACAAGCCTTGCGGC (double strand) [Substitution CAAGCCTTG] |  | no binding
8 | CAGACATTCAATGCGGC (double strand) [Substitution CATTCAATG] |  | no binding
9 | CAGTCAATCATTGTGGC (double strand) [Flank variant CAGT-CAATCATTG-TGGC] | 7.55 | 
10 | CAGAAAATCATTTCGGC (double strand) [Substitution AAATCATTT] | 7.15 | 
11 | CAGCTCAGTCTGACGGC (double strand) [Non-consensus] |  | no binding
12 | CAGACCATCATGGCGGC (double strand) [Substitution CCATCATGG] |  | no binding
13 | CAGACTATCATAGCGGC (double strand) [Substitution CTATCATAG] |  | no binding
14 | CAGACAATGCGATTGCGGC (double strand) [Insertion CAATGCGATTG] |  | no binding
15 | CAGACAATCGATTGCGGC (double strand) [Insertion CAATCGATTG] |  | no binding
16 | CAGACAATGCCGACCGGC (double strand) [Insertion CAATGCCGACCGGC] |  | no binding
17 | CAGACACTCAGTGCGGC (double strand) [Substitution CACTCAGTG] |  | no binding
18 | CAGACAATTATTGCGGC (double strand) [Class I] | 7.39 | 
19 | CAGACAAACTTTGCGGC (double strand) [Substitution CAAACTTTG] |  | no binding
20 | CACGCAATCATTGGCGC (double strand) [Flank variant CACG-CAATCATTG-GCGC] | 7.40 | 
21 | CAGACAATTACGACCGGC (double strand) [Insertion CAATTACGACCGGC] |  | no binding
22 | CAGACAATCATTGAGGC (double strand) [Flank variant CAGA-CAATCATTG-AGGC] | 7.56 | 
23 | CAGACAATATATTGCGGC (double strand) [Insertion CAATATATTG] |  | no binding
24 | CAGACAATTAATTGCGGC (double strand) [Insertion CAATTAATTG] |  | no binding
25 | CAGAGAATCATTCCGGC (double strand) [Substitution GAATCATTC] |  | no binding
26 | CAGACAATGCATTGCGGC (double strand) [Insertion CAATGCATTG] |  | no binding
27 | CAGACAATCATTGCGGC (double strand) [Class II] | 7.56 | 
28 | CACGCAATCATTGCGGC (double strand) [Flank variant CACG-CAATCATTG-CGGC] | 7.65 | 
